# According to US12714725B2, “Stabilization of selenite in a nutritional solution by dissolved oxygen” (BAXTER INTERNATIONAL INC., priority 2019, dated 2026):
# “Also recorded” adds a separate entry of the source. At least one structure is not confirmed: it was looked up by name or label, or the drawing left a doubt.
# Columns and labels:
# Format in all cases: physicochemical
# [1] = Full factorial DoE on the stability of Selenite (container material, pH, sterilization, storage temperature, dissolved oxygen); details: for Dissolved oxygen: after 6 months; for pH variation: after 6 months storage; for Delta redox potential: during the 5 minutes measure; for Visual inspection: 6 months storage
# Description: A full factorial DoE was designed to evaluate the impact of five factors on the stability of Selenite:
# Container material: an interaction between Selenite and plastic bags material was previously highlighted. To evaluate this factor a neutral material i.e. glass bottles was used as a comparison to plastic bags.
# pH of the solution: all previous studies were conducted at pH<3.5 to ensure stability of Fe. A comparison with a native pH>7 obtained by simple dilution of Selenite into MilliQ water allowed to evaluate the impact of this parameter.
# Sterilization: the terminal heat sterilization conducted on samples may initiate degradative chemical reactions by heat exposure. Unsterilized VS sterilized samples were compared regarding Selenite stability to assess the impact of this process step.
# Storage temperature: accelerated stability studies are classically conducted at 40° C. However, selenite might be sensitive to it and a comparison with samples stored at 5° C. was conducted.
# Dissolved oxygen content: oxygen is involved in many redox reactions most of the time deleterious for macro and micronutrients (particularly vitamins). To assess the impact of this parameter on Selenite stability, solutions of Selenite were flushed either with oxygen (up to saturation at about 8 ppm) or with nitrogen (DO<0.5 ppm).
# All combinations of factors were produced and stored under appropriate conditions for 6 months. They were then submitted to several tests to evaluate the impact of each factor on several responses.
# The following readouts were performed in order to assess the impact of the factors listed above:
# Se assay to evaluate the degradation of Selenium.
# Visual inspection of the samples to detect any precipitate, particles or discoloration.
# pH measurement to evaluate the evolution of sample pH after 6 months storage.
# Dissolved oxygen measurement to evaluate the evolution of the dissolved oxygen after 6 months of storage.
# Redox potential measurement as Selenite is engaged into different Se redox couples the information on redox potential of the solution might help to understand the stability of this element.
# The impact of oxygen seems of major importance in the stability of Selenite. […] To confirm this hypothesis, a regression test was performed between Se assay results and log(dissolved oxygen results). Only sterilized samples stored at 40° C. were considered as the sterilization and storage at high temperature seem to both increase the Se degradation.
# [2] = Stability of a mix of the 9 TE at pH 2.2 with 200 mM malic acid in a glass bottle; details: heat sterilized, about 3 ppm dissolved oxygen
# Description: The presence of oxygen promotes selenite stability. To ensure that it is not deleterious to another TE the stability of a mix of the 9 TE of interest (i.e. Zn, Cu, Cr, Mo, Mn, Fe, I, F & Se) was evaluated at pH 2.2 with 200 mM of malic acid (to ensure Iodide stability) and stored in a glass bottle (so containing about 3 ppm of dissolved oxygen). The solution was heat sterilized and stored 6 months at 40° C. or 5° C. (T6M 40° C. and T6M 5° C., respectively).
# [3] = Selenite stability in oxygen semi-permeable (EU2-S) and oxygen impermeable (EU2-F) film bags; details: for Selenite recovery: 1 dd/25 ml, pH 3.0, 100 mM malic acid, oxygen absorber in overpouch
# [4] = other samples (all flushed with oxygen + flushed with nitrogen in glass bottles)
# [5] = samples flushed with nitrogen and stored in plastic bags
smiles,measurement,setting,value
"O=[Se](O)O [Selenite, sodium selenite]",Dissolved oxygen,[1]; [4],oxygen (>1.5 ppm) even
same,pH variation,[1]; [4],No significant variation
same,Delta redox potential,[1]; other samples,No significant variation
same,Visual inspection,"[1]; other samples, glass bottles",Particles dust like in the
same,Visual inspection,"[1]; other samples, plastic bags (flushed with oxygen)",Nothing detected in plastic
same,Visual inspection,[1]; [5],No particles nor; also recorded: egg-smell at the opening
same,Dissolved oxygen,[1]; [5],About 0 ppm of oxygen
same,pH variation,[1]; [5],No significant variation
same,Delta redox potential,[1]; [5],(up to −400 mV)
same,"Concentration recovered, T6 M 5° C.","[2]; 6 months at 5° C., pH 2.2, 200 mM malic acid",2446 ng/mL
same,"Percentage of the recovered TE, T6 M 5° C.","[2]; 6 months at 5° C., relative to theoretical concentration",87.2%
same,"Concentration recovered, T6 M 40° C.","[2]; 6 months at 40° C., pH 2.2, 200 mM malic acid",2461 ng/mL
same,"Percentage of the recovered TE, T6 M 40° C.","[2]; 6 months at 40° C., relative to theoretical concentration",87.7%
same,Selenite recovery,[3]; EU2-F bag (oxygen-impermeable film),> 80%
same,Selenite recovery,"[3]; EU-2S batch (semi-permeable film), after about 5 months",below 80%
same,Selenite recovery rate,"[3]; over 5 months, as long as the DO concentration does not decrease below 0.5 ppm",above 80%
